Results reported in publication doi:10.1101/2023.11.01.565136.
These are yes or no findings as the source states them, for the method shown. Some binding calls cover weakened binding; strength is not graded here.

Target: T1, Full-length human E6AP (E6-associated protein) (human), Q05086
T1 chain: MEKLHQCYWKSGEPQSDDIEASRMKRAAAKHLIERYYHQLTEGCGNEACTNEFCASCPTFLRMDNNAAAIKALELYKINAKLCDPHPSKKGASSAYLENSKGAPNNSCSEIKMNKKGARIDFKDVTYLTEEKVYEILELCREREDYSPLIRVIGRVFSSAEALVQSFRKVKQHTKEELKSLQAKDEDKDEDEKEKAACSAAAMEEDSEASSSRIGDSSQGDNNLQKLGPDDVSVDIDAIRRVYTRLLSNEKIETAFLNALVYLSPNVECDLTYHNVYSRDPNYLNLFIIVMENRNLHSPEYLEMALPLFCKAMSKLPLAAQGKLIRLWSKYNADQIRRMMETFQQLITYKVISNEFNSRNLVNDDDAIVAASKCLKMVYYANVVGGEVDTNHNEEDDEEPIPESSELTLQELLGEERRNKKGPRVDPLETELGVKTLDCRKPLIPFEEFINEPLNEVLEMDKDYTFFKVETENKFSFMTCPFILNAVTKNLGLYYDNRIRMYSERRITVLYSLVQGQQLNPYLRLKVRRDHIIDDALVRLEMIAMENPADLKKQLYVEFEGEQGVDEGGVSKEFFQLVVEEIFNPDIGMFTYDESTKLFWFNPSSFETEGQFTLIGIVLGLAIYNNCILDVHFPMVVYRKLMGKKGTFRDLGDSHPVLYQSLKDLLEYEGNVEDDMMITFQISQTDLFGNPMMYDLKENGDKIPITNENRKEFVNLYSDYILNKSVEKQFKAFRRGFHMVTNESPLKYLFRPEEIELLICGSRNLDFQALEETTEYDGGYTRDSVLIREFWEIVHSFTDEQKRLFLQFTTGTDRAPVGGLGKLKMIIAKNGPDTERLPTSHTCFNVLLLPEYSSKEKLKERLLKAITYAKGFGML
Assay: cryo-EM structure
Details: remark: other sources report otherwise

binding: binds
B1: Full-length human E6AP (E6-associated protein), Q05086 1-875 (enzyme)
chain: T1 chain
